According to the supplement of paper PMC11732987, “Enantioselective OTUD7B fragment discovery through chemoproteomics screening and high-throughput optimisation” (Communications Chemistry, 2025):
Some of the results follow. The data scatter; read single values as rough.

Sequences of proteins named here, by UniProt entry; tags and fusion partners are left off. A change or cut given only in a name is not applied to a line headed by its entry.
UniProt Q8IX15: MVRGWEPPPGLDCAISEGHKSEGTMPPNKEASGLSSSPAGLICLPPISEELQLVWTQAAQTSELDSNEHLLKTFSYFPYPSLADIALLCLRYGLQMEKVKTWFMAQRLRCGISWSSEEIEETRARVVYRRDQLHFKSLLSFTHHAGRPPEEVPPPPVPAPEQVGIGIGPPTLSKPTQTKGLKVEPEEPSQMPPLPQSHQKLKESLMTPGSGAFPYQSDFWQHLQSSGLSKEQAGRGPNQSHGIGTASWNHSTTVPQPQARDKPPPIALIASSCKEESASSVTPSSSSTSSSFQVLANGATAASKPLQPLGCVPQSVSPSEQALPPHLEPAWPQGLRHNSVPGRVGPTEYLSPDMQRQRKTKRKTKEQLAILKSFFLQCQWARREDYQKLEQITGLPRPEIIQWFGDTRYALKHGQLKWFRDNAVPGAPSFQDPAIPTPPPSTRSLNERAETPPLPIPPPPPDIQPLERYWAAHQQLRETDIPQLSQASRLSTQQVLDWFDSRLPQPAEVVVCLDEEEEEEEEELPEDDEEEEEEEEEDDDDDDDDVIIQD
UniProt Q8WW33: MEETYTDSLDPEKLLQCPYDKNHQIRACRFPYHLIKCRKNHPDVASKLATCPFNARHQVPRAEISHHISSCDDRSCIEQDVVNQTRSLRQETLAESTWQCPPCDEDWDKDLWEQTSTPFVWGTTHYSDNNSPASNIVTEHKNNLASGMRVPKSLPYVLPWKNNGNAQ
UniProt P32780: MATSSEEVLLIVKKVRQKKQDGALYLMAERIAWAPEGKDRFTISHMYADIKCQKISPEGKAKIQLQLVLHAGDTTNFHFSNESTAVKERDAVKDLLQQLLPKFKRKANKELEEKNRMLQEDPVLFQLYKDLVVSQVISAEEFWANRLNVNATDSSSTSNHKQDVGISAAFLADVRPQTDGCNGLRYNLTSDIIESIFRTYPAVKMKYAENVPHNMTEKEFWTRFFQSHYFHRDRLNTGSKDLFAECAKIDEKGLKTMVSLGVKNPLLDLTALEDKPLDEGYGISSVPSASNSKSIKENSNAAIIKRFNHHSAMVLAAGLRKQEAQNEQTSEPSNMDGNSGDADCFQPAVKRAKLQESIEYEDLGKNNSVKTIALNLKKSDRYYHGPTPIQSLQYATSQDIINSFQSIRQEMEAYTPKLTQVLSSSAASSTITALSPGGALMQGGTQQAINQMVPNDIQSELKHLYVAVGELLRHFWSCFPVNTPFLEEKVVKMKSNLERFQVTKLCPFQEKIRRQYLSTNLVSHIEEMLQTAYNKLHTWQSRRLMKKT
UniProt P53701: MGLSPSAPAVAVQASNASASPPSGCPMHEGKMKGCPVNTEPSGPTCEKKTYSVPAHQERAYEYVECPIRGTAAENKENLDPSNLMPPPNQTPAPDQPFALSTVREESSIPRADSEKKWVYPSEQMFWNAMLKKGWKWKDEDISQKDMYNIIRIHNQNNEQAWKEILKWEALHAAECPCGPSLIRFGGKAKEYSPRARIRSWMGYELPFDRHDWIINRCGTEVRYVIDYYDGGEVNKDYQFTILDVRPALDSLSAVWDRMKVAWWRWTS
UniProt Q9UKN8: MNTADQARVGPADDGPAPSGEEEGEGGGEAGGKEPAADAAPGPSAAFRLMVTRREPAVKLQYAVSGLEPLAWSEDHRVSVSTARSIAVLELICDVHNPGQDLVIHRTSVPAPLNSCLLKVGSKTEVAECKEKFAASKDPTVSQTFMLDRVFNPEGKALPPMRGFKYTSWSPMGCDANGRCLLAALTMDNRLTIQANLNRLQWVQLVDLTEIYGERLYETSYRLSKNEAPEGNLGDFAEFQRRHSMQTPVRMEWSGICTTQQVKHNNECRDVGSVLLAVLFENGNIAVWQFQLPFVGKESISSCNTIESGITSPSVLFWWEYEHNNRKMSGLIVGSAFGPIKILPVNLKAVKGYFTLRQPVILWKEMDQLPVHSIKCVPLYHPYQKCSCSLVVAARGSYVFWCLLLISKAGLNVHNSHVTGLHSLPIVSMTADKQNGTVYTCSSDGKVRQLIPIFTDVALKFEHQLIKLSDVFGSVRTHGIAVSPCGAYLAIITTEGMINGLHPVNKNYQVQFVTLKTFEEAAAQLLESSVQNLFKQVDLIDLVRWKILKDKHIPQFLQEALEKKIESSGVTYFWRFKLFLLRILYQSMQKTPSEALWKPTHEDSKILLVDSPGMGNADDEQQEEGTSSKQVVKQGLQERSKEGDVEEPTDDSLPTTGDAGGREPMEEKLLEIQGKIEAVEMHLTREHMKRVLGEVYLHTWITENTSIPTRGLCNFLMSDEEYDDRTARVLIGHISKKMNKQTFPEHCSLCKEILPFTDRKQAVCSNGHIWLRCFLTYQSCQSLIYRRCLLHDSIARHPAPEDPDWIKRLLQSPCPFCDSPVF
UniProt Q9UJC3, whole entry, looked up: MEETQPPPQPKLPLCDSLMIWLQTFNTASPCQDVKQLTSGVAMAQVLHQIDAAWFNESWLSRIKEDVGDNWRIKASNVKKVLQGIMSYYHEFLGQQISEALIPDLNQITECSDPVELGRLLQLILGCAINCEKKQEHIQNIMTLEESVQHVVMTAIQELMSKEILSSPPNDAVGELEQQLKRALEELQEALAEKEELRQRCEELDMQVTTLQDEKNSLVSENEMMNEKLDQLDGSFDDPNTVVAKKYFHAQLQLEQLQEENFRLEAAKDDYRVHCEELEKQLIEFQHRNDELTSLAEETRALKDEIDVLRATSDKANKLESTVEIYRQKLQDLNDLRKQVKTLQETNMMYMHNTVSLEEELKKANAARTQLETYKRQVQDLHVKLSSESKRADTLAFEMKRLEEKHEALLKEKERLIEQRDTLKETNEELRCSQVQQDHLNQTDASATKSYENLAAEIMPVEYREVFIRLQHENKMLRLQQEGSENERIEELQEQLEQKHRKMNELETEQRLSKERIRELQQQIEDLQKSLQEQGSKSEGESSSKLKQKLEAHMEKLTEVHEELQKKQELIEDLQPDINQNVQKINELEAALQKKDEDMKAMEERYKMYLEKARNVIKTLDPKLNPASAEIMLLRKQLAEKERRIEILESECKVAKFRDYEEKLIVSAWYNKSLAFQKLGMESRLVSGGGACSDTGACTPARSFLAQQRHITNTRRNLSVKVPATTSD
UniProt P19367: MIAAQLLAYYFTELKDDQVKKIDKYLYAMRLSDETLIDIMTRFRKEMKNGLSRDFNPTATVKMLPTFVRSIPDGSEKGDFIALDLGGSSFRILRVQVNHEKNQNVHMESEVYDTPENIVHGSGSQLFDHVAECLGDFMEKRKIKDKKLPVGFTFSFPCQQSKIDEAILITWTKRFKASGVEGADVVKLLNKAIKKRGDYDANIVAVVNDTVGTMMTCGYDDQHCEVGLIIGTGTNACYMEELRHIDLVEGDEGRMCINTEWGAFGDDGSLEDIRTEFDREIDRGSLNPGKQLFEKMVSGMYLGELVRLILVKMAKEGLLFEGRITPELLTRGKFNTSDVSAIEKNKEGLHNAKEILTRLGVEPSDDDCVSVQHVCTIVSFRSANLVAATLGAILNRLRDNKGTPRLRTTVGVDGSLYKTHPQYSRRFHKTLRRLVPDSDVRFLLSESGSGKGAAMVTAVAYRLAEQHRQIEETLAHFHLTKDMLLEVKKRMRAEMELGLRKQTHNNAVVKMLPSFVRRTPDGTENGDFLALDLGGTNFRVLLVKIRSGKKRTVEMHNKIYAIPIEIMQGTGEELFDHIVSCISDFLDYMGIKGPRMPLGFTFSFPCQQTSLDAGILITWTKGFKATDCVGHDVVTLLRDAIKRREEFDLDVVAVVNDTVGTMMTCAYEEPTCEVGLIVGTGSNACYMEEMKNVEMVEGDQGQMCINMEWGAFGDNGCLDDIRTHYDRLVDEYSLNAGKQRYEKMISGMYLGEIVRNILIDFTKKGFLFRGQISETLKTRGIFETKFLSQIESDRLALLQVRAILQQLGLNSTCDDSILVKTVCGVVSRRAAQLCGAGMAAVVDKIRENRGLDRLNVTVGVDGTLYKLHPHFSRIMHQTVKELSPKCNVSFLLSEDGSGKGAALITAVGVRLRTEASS

Key:
[1] = compound: ClCC(=O)N[C@@H]1CCCc2ccccc12; test: log2 mean competition ratio of IA-DTB cysteine labelling (DMSO/compound) (log2 ratio); higher = stronger cysteine engagement by compound; details: treatment time: 4 h, cell line lysate: HEK293T
Experimental: (§1)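 IA-DTB competitive cysteine chemoproteomics in HEK293T RIPA lysate. Lysates were treated with compound 29 or 30 at 50 or 200 µM for 4 h, then IA-DTB (500 µM, 1 h), trypsin-digested, NeutrAvidin-enriched and analysed by diaPASEF. Competition ratio = intensity DMSO / intensity compound (n=4 treated, n=64 DMSO); binding: mean log2 CR ≥ 1 and p ≤ 0.05 plus QC filters. Target is the cysteine site.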

[2] = compound: ClCC(=O)N[C@H]1CCCc2ccccc12; test: as above; details: treatment time: 4 h, cell line lysate: HEK293T
Experimental: as §1

| Target | log2 mean competition ratio ([1]; 50 µM) | log2 mean competition ratio ([1]; 200 µM) | log2 mean competition ratio ([2]; 50 µM) | log2 mean competition ratio ([2]; 200 µM) |
| --- | --- | --- | --- | --- |
| HOMEZ C13 (UniProt Q8IX15) | -0.144 | 0.0858 | -0.258 | -0.232 |
| GTSF1 C51 (UniProt Q8WW33) | -0.129 | -0.45 | 0.163 | -0.123 |
| GTF2H1 C246 (UniProt P32780) | -0.186 | -0.0739 | 0.326 | 0.174 |
| HCCS C66 (UniProt P53701) | 0.232 | 0.0935 | 0.363 | 0.48 |
| GTF3C4 C129 (UniProt Q9UKN8) | -0.129 | 0.0797 | -0.0167 | 0.186 |
| GTF3C4 C788 (UniProt Q9UKN8) | 0.561 | 0.293 | 0.0513 | 0.115 |
| HOOK1 C652 (UniProt Q9UJC3) | 0.17 | -0.158 | -0.207 | 0.399 |
| HK1 C823 (UniProt P19367) | -0.0362 | -0.303 | 0.481 | -0.0926 |
